Assay results reported in PMC5702341, “Identification of Antibody and Small Molecule Antagonists of Ferroportin-Hepcidin Interaction” (Frontiers in Pharmacology, 2017).

Tested on: C326-containing linear FPN peptide (hepcidin binding domain)
Test: Thiol reactivity with linear FPN peptide by mass spectrometry
Parameters: species or system human

## O=S(=O)(c1ccc(Cl)cc1)c1cnc2ccccc2n1 [Compound 1, 2-[(4-chlorophenyl)sulfonyl]quinoxaline]
100 μM compound and 100 μM peptide, 20 mM acetate buffer pH 7, 12 h
  fraction of peptide reacted: 50%

## NC(=O)CI [iodoacetamide, reference compound]
100 μM iodoacetamide, 20 mM acetate buffer pH 7, within 1 h
  reaction with cysteine-containing peptide: reacted completely
